These are yes or no findings as the source states them, for the method shown. In cells and extracts the contact can be indirect. Binding can be weak; no strength is given.
Target: HPV42-E7, 3xMYC-tagged (human papillomavirus 42)
Experiment: co-IP; U2OS transfected with 3xMYC-tagged E7; 24 h 1 umol/L MG-132; lysate on anti-MYC agarose beads 2 h at 4 C; immunoblot

B1: pRB, endogenous in U2OS (protein, UniProt P06400 1-928)
chain: MPPKTPRKTAATAAAAAAEPPAPPPPPPPEEDPEQDSGPEDLPLVRLEFEETEEPDFTALCQKLKIPDHVRERAWLTWEKVSSVDGVLGGYIQKKKELWGICIFIAAVDLDEMSFTFTELQKNIEISVHKFFNLLKEIDTSTKVDNAMSRLLKKYDVLFALFSKLERTCELIYLTQPSSSISTEINSALVLKVSWITFLLAKGEVLQMEDDLVISFQLMLCVLDYFIKLSPPMLLKEPYKTAVIPINGSPRTPRRGQNRSARIAKQLENDTRIIEVLCKEHECNIDEVKNVYFKNFIPFMNSLGLVTSNGLPEVENLSKRYEEIYLKNKDLDARLFLDHDKTLQTDSIDSFETQRTPRKSNLDEEVNVIPPHTPVRTVMNTIQQLMMILNSASDQPSENLISYFNNCTVNPKESILKRVKDIGYIFKEKFAKAVGQGCVEIGSQRYKLGVRLYYRVMESMLKSEEERLSIQNFSKLLNDNIFHMSLLACALEVVMATYSRSTSQNLDSGTDLSFPWILNVLNLKAFDFYKVIESFIKAEGNLTREMIKHLERCEHRIMESLAWLSDSPLFDLIKQSKDREGPTDHLESACPLNLPLQNNHTAADMYLSPVRSPKKKGSTTRVNSTANAETQATSAFQTQKPLKSTSLSLFYKKVYRLAYLRLNTLCERLLSEHPELEHIIWTLFQHTLQNEYELMRDRHLDQIMMCSMYGICKVKNIDLKFKIIVTAYKDLPHAVQETFKRVLIKEEEYDSIIVFYNSVFMQRLKTNILQYASTRPPTLSPIPHIPRSPYKFPSSPLRIPGGNIYISPLKSPYKISEGLPTPTKMTPRSRILVSIGESFGTSEKFQKINQMVCNSDRVLKRSAEGSNPPKPLKKLRFDIEGSDEADGSKHLPGESKFQQKLAEMTSTRTRMQKQKMNDSMDTSNKEEK
binding: binds

Source: article PMC9827110
